Data reported in the supplement of paper PMC4683952.
The other results are listed elsewhere or left out. Cut-off read from the data, not from the text of the source: active = 2 or more and inactive = the rest. This data set is noisy: repeats of one test often differ as much as different tests do.

Test system: Lgr5 (MarsCy1-Lgr5-EGFP, U2OS)
Assay: cell-surface Lgr5 expression (SCi1 fluorescence, background-subtracted) relative to WT DMSO (fold of DMSO control); higher = more Lgr5 at the plasma membrane
Conditions: U2OS MarsCy1-Lgr5-EGFP stable; treatment time: overnight; library: ActiProbe-5K (TimTec); 25 µM

cell-surface Lgr5 expression, inactive:
CCOC(=O)c1cn2nc(OS(C)(=O)=O)cc2nc1C 1.51, CC1CN(C(=O)N2CCOCC2)CC(C)O1 (stereo not given) 1.13, N#Cc1c(-c2ccccc2)cc(-c2ccccc2)nc1SCc1ccccc1 0.975, CC1CN(C(=O)c2scc3c2OCCO3)CC(C)O1 (stereo not given) 1.37, N#Cc1c2c(n[nH]c1=O)C(=O)c1ccccc1-2 0.388, Nc1ccc2c(c1)SSc1cc(N)ccc1-2 1.25, N#CC12CC3CC(C1)CC(C#N)(C3)C2 1.16, c1(cc(c(C)c(o1)=O)CC)/C=C(/Cl)Cl 1.21, CC1CCc2cc(F)ccc2N1C(=S)NCC1CCCO1 (stereo not given) 1.35, O=C(NC1=NN(C(=O)Nc2ccccc2)C2(CCCC2)S1)Nc1ccccc1 0.669, O=C(NC1CCCCC1)c1c(O)c2c([nH]c1=O)CCCC2 1.23, CN(C1CCS(=O)(=O)C1)S(=O)(=O)c1ccc(F)cc1 (stereo not given) 1.11, O=S(=O)(c1ccc(OC(F)(F)F)cc1)N1CCN(c2nsc3ccccc23)CC1 0.903, Cc1cc(S(=O)(=O)NC2CC2)c(C)s1 1.03, CCOC(=O)C1C(=O)NCC2CCCC21 (stereo not given) 0.924, Clc1cc(/N=C\c2ccc3c(c2)OCO3)ccc1Br 1.15, N#Cc1sc2nc(C34CC5CC(CC(C5)C3)C4)ccc2c1N 1.24, COc1nc(OCC#N)nc(N2CCOCC2)n1 1.43, O=C(O)c1csc2c1CCCC2 1.06, CC1(C)CC(=O)C2=C(C1)OC(N)=C(C#N)C21CCC2(CC1)OCCO2 1.2, FC(F)Oc1ccc(/C=C\c2nnc(-c3ccncc3)o2)cc1 1.04, Brc1ccc(-c2noc(Cc3cccs3)n2)o1 1.12, c1csc(-c2nc3cnccn3c2NC2CCCC2)c1 0.956, CCOc1ccc2c(c1)-c1c(ssc1=S)C(C)(C)N2 1.75, Oc1ccc(Br)c(/C=N\c2ccc(-c3ccc(/N=C\c4cc(Br)ccc4O)cc3)cc2)c1 1.03, Brc1ccc2nc(-c3ccccc3)cn2c1 1.41, Brc1ccc(/C=N/Nc2nc(N3CCOCC3)nc(N3CCOCC3)n2)o1 1.11, c1cncc(-c2noc(-c3ccc(-c4nc(-c5cccnc5)no4)cc3)n2)c1 1, COc1cc(Cl)c(OC)cc1N 1.28, Nc1c(C(=O)c2ccc(Br)s2)oc2ccc(Br)cc12 1.34, COc1cc(CCC(C)O)c(OC)c2c1OCO2 (stereo not given) 1.23, Nc1nc(=S)n2c(n1)oc1ccccc12 1.42, Cc1[nH]c2ccccc2c1/C=N/Nc1nc2ccccc2[nH]1 1.04, C=CCNC(=O)n1cc([N+](=O)[O-])cn1 1.15, COC(=O)c1nnc(N)[nH]1 1.25, CC1=CC(c2ccoc2)c2c(oc(N)c(C#N)c2=O)S1 (stereo not given) 1.26, NS(=O)(=O)c1ccc(NC(=S)Nc2ccc(F)cc2)cc1 0.897, CCC1CC(O)C(C)C(C)S1 (stereo not given) 1.13, Oc1ccc(Sc2ccc(O)cc2)cc1 0.848, N#CC1=C(N)SC(N)=C(C#N)C1c1ccncc1 1.24, c1csc(-c2cnc3n2CCC3)c1 0.682, c1ccc(C([C@H]2[C@@H]([C@]([C@H]3(N2C=Cc2c3cccc2))(C#N)C#N)c2ccccc2)=O)cc1 1.23, O=S(=O)(Nc1ccc2c(c1)OCCO2)c1cccs1 1.13, O=[N+]([O-])c1ccc2nc3c(nc2c1)-c1cccc2cccc-3c12 0.715, CS(=O)(=O)N(CCC#N)Cc1ccco1 1.01, c1coc(CSc2ccc(-n3cnnn3)cc2)c1 0.952, Cc1[nH]nc2c1C1(CCN(C(C)C)CC1)C(C#N)=C(N)O2 1.14, Cn1cc(C(N)=O)c(N)n1 1.26, O=c1ccoc2c(Cl)cc(Cl)cc12 1.6, CN1C(=O)/C(=C2\SC(=S)N(CC3CCCO3)C2=O)c2ccccc21 (stereo not given) 1.47, N#CC1=C2CCCCC2C2(CCCCC2)C(C#N)(C#N)C1=O (stereo not given) 1.36, COC(=O)C(C(=O)NCC1CCCO1)C1CCCC1 (stereo not given) 1.21, CC1CCCCC1NC(=O)C(=O)NCC1CCCO1 (stereo not given) 1.27, Br.Nc1ccc(OCC(O)C[n+]2ccccc2)cc1.[Br-] (stereo not given) 1.38, Cc1cc2c(cc1C)-c1c(ss/c1=N/c1ccc(S(N)(=O)=O)cc1)C(C)(C)N2 0.813
